Test results as given in PubChem BioAssay AID2685 (National Center for Advancing Translational Sciences (NCATS), 2010).
Some of the results follow. These are further read-outs of the screen, such as a control signal, another cell line or another target. No call is given for them. Most of these compounds were active or inconclusive in the main read-out, so they are no random draw. Words in brackets tell the shape of the fitted curve; partial curves, single points and poor fits give uncertain potencies.

Test: qHTS Assay for Lipid Storage Modulators in Drosophila S3 Cells;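 as to cell number change: cells counted by Cell Tracker Red CMTPX staining in the red channel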
Conditions: BODIPY lipid droplet fluorescence, 18-24 h; for cell number change: measured here: cell count max response, cells fed with added oleic acid
In short: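 Drosophila S3 cells got compounds at several concentrations plus oleic acid (400 uM solution). Laser-scanning cytometry with 488 nm excitation read lipid droplets at 500-530 nm and cells at 575-640 nm. Percent activity was relative to 20 uM Triacsin C.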

[1] = measured here: lipid fluorescence (Fed channel) AC50, cells fed with added oleic acid
[2] = measured here: cell number channel AC50, cells fed with added oleic acid

Structure (SMILES): COc1cccc2cc(C(=O)NCc3ccco3)c(=Nc3ccc(C(=O)O)cc3)oc12
- cell number change: 13.2%
- AC50 [1]: 0.58 µM [rising, single point]

Structure (SMILES): CC1(C)N([O-])C2=C(CCCC2)[N+]1=O
- AC50 [1]: 29.1 µM [rising, single point]

Structure (SMILES): O=C(COc1ccc(S(=O)(=O)N2CCCC2)cc1Cl)NCc1ccco1
- cell number change: 12.7%
- AC50 [1]: 29.1 µM [rising, single point]

Structure (SMILES): Oc1c(Br)cc(Br)cc1C=NCc1ccccc1
- cell number change: 2.72%
- AC50 [2]: 0.116 µM [rising, full curve, poor fit]
- AC50 [1]: 0.146 µM [rising, full curve, poor fit]

Structure (SMILES): COc1cc(CNc2ccc(N3CCCCC3)cc2)ccc1OCC(=O)NC(C)(C)C
- cell number change: -7.69%

Structure (SMILES): Oc1ccc(/C=N/n2c(-c3ccco3)csc2=Nc2cccnc2)c(O)c1
- cell number change: -1.77%
- AC50 [1]: 0.366 µM [rising, full curve]

Structure (SMILES): CCOc1ccc(CN2C(=O)c3ccccc3C2C(=O)NC(C)CC)cc1OC (stereo not given)
- cell number change: 42.3%
- AC50 [2]: 4.11 µM [rising, full curve]

Structure (SMILES): CC12CC(O)C3c4ccc(O)cc4CCC3C1CC/C2=N\O (stereo not given)
- cell number change: 9.22%
- AC50 [1]: 29.1 µM [rising, single point]

Structure (SMILES): O=C(Nc1ccc(N2CCOCC2)c(Cl)c1)c1ccccc1F
- AC50 [2]: 0.0517 µM [rising, full curve, poor fit]

Structure (SMILES): Cc1ccsc1C(=O)OCC(=O)c1cc(C)n(CC2CCCO2)c1C (stereo not given)
- cell number change: 27.3%
- AC50 [1]: 29.1 µM [rising, partial curve, poor fit]

Structure (SMILES): c1ccc(CCNc2nc(-c3ccncc3)nc3ccccc23)cc1
- cell number change: 1.99%

Structure (SMILES): CC(C)N(O)C(=O)NC(C)(C)C
- cell number change: -47.6%
- AC50 [2]: 6.51 µM [falling, full curve]
- AC50 [1]: 16.4 µM [falling, partial curve]

Structure (SMILES): Cc1cc(C(=O)Nc2ccc(N3CCCC3)c(Cl)c2)ccc1[N+](=O)[O-]
- cell number change: -1.75%
- AC50 [2]: 4.61 µM [falling, single point]

Structure (SMILES): O=C1c2ccccc2C(Nc2ccc3c(c2)OCCO3)N1Cc1ccco1 (stereo not given)
- cell number change: -3.58%
- AC50 [1]: 32.6 µM [rising, single point]

Structure (SMILES): COc1ccc(-n2c(-c3ccc(Br)cc3)c[n+]3c2CCC3)cc1
- cell number change: -11.2%
- AC50 [1]: 0.206 µM [rising, partial curve, poor fit]

Structure (SMILES): CCCCn1c(-c2ccccc2)nnc1-c1ccccc1
- cell number change: -12%
- AC50 [1]: 5.17 µM [rising, partial curve]

Structure (SMILES): COc1cc(S(=O)(=O)NC2CCCC2)c(OC)cc1C
- cell number change: -23.7%
- AC50 [1]: 7.31 µM [falling, partial curve]

Structure (SMILES): O=C(COC(=O)c1cc(S(=O)(=O)N2CCCC2)ccc1O)Nc1ccc(SC(F)F)cc1
- cell number change: -0.125%
- AC50 [1]: 4.61 µM [rising, full curve]

Structure (SMILES): CC(=O)NS(=O)(=O)c1ccc(NC(=O)CCC(=O)Oc2ccc(C)cc2)cc1
- cell number change: 41.5%
- AC50 [2]: 4.11 µM [rising, full curve]
- AC50 [1]: 0.0731 µM [rising, full curve]

Structure (SMILES): Cc1ccc(NC(=O)C2CC(=O)n3c(nc4ccccc43)N2)cc1Cl (stereo not given)
- cell number change: -18.7%
- AC50 [1]: 29.1 µM [falling, single point]

Structure (SMILES): Cc1ccc(CN(C(=O)c2csnn2)C(C(=O)NC2CCCC2)c2ccc(C)o2)cc1 (stereo not given)
- cell number change: -48.1%
- AC50 [2]: 20.6 µM [falling, single point]
- AC50 [1]: 14.6 µM [falling, partial curve]

Structure (SMILES): O=C(Nc1c(C(=O)O)[nH]c2ccccc12)NC1CCCCC1
- cell number change: -28.7%
- AC50 [1]: 16.4 µM [falling, single point]

Structure (SMILES): COc1ccc(CCN2CC(C(=O)NCc3cc(C)on3)CCC2=O)cc1 (stereo not given)
- cell number change: 35.8%
- AC50 [2]: 29.1 µM [rising, single point]
- AC50 [1]: 29.1 µM [rising, single point]

Structure (SMILES): CCCCC1(C(=O)OCC)NC(c2ccc(O)cc2)C2C(=O)N(c3ccccc3)C(=O)C21 (stereo not given)
- cell number change: 17.9%
- AC50 [1]: 16.4 µM [falling, single point]

Structure (SMILES): CC(=O)c1ccc(NC(=S)NC(=O)c2c(Cl)c(C)nn2C)cc1
- cell number change: 22.1%
- AC50 [1]: 7.31 µM [rising, partial curve]

Structure (SMILES): O=C(CN1C(=O)CSC1=O)Nc1ccc2c(c1)OCCO2
- cell number change: -33.8%
- AC50 [2]: 0.164 µM [falling, full curve, poor fit]

Structure (SMILES): CCOc1cc(C2NC(=O)NC(c3ccccc3)=C2C(=O)c2ccccc2)c(Br)cc1OCC(=O)O (stereo not given)
- cell number change: 133%
- AC50 [2]: 6.51 µM [falling, single point]
- AC50 [1]: 29.1 µM [rising, single point]

Structure (SMILES): CC1CCCC(NC(=O)C2CCN(S(=O)(=O)c3cnc[nH]3)CC2)C1C (stereo not given)
- cell number change: 13.4%
- AC50 [1]: 18.4 µM [rising, partial curve]

Structure (SMILES): Cc1[nH]c2ccccc2c1/C=N/NC(=O)c1cc(-c2ccncc2)nc2ccccc12
- cell number change: -2.89%

Structure (SMILES): OCC[C@H]1C[C@H](O)[C@@H](O)[C@@]2(CCc3ccccc3CO2)O1
- cell number change: -6.56%
- AC50 [1]: 3.26 µM [falling, single point]

Structure (SMILES): CCOc1ccc(C(=O)NC(=S)Nc2cccc(NC(=O)c3ccco3)c2)cc1[N+](=O)[O-]
- cell number change: -47.9%
- AC50 [2]: 29.1 µM [falling, single point]
- AC50 [1]: 20.6 µM [falling, single point]

Structure (SMILES): COc1ccc(OC(C)=O)c(C2c3cc(OC)c(OC)cc3CCN2C(C)=O)c1 (stereo not given)
- cell number change: 16.6%
- AC50 [2]: 0.259 µM [rising, full curve, poor fit]
- AC50 [1]: 0.92 µM [rising, partial curve]

Structure (SMILES): O=C1C2C3C=CC(CC3)C2C(=O)N1c1ccc(F)cc1 (stereo not given)
- cell number change: -5.11%
- AC50 [1]: 0.058 µM [falling, full curve, poor fit]

Structure (SMILES): CC(=O)NC(Cc1ccccc1)C(=O)OCC(=O)c1ccc(Cl)cc1 (stereo not given)
- cell number change: 7.37%
- AC50 [1]: 6.51 µM [falling, single point]

Structure (SMILES): O=C(CCCc1nc(-c2ccc(Cl)cc2)no1)N1CCOCC1
- cell number change: -31.2%
- AC50 [2]: 10.3 µM [falling, partial curve, poor fit]
- AC50 [1]: 0.146 µM [falling, full curve, poor fit]

Structure (SMILES): CNS(=O)(=O)c1cccc(C(=O)NCC(C)(C)N2CCCCC2)c1
- cell number change: -26.4%

Structure (SMILES): O=C(Nc1ccc(Cl)c(Cl)c1)N1CCOCC1
- cell number change: -8.11%
- AC50 [2]: 6.51 µM [falling, single point]

Structure (SMILES): COc1ccc(C2=NOC(COC(=O)c3ccc4ccccc4n3)C2)cc1 (stereo not given)
- cell number change: 9.97%
- AC50 [1]: 16.4 µM [rising, single point]

Structure (SMILES): O=C(Nc1ccccc1O)c1cc2cc(Br)ccc2oc1=O
- cell number change: 4.5%
- AC50 [1]: 0.58 µM [rising, single point]

Structure (SMILES): CCN(C(=O)c1c(N)cnn1C)c1ccccc1
- cell number change: 31.5%

Structure (SMILES): CCCCC(=O)Nc1ccc(C(N)=O)cc1
- cell number change: -4.43%
- AC50 [1]: 6.51 µM [falling, single point]

Structure (SMILES): COc1ccc(CNc2ncc(-c3ccc(Br)cc3)n2C)cc1OC
- cell number change: -14%
- AC50 [1]: 29.1 µM [falling, single point]

Structure (SMILES): Cc1ccc(C)c(NC(=O)C2CCCN(S(=O)(=O)c3c(C)nn(C)c3C)C2)c1 (stereo not given)
- cell number change: 16.1%

Structure (SMILES): CCOC(=O)c1c(NC(=O)CSc2nc(C)cc(C)c2C#N)sc(C(C)=O)c1C
- cell number change: -0.71%

Structure (SMILES): COc1cc2c(cc1/C=C1/NC(=O)N(c3ccccc3)C1=O)OCO2
- cell number change: 61.1%
- AC50 [2]: 29.1 µM [rising, single point]
- AC50 [1]: 0.82 µM [rising, partial curve]

Structure (SMILES): S=C1NNC2(CC3CC2C2CCCC32)NN1 (stereo not given)
- cell number change: -38.1%

Structure (SMILES): CSCCC(NC(N)=O)C(=O)Nc1ccc(C)cc1 (stereo not given)
- cell number change: -23.6%

Structure (SMILES): COc1ccc(C2C(C#N)=C(N)Oc3cc(N)ccc32)cc1OC (stereo not given)
- AC50 [1]: 20.6 µM [rising, partial curve, poor fit]

Structure (SMILES): CCCc1cc(-c2n[nH]c(C)c2-c2ccc(C(=O)OCC)o2)c(O)cc1O
- cell number change: -70.8%
- AC50 [2]: 25.9 µM [falling, single point]
- AC50 [1]: 23.1 µM [falling, single point]

Structure (SMILES): O=C(O)CC(NC(=O)c1ccc2c(c1)OCO2)c1cccc([N+](=O)[O-])c1 (stereo not given)
- cell number change: 20.2%
- AC50 [2]: 0.731 µM [falling, single point]

Structure (SMILES): COc1ccc(CNC(=O)c2nccnc2CO)cc1
- cell number change: 14.8%
- AC50 [1]: 29.1 µM [rising, single point]

Structure (SMILES): Cc1cc2c(cc1S(=O)(=O)Nc1c(C)cccc1C)n(C)c(=O)c(=O)n2C
- cell number change: -35.2%
- AC50 [2]: 29.1 µM [falling, single point]

Structure (SMILES): Cc1cccc(C)c1OCC(=O)Nc1ccccc1C(F)(F)F
- cell number change: -2.06%

Structure (SMILES): COc1ccc(NC(=O)Cn2nnc(C(=O)NCc3ccc4c(c3)OCO4)c2N)cc1
- cell number change: 6.92%

Structure (SMILES): O=C(Nc1ccon1)Nc1ccc(Cl)cc1Cl
- cell number change: 40.7%
- AC50 [2]: 35.5 µM [rising, single point]
- AC50 [1]: 0.708 µM [rising, full curve, poor fit]

Structure (SMILES): O=C(COC(=O)c1cc(S(=O)(=O)N2CCOCC2)c(Cl)cc1Cl)Nc1ncc(C(F)(F)F)cc1Cl
- cell number change: -49.7%
- AC50 [2]: 9.2 µM [falling, partial curve, poor fit]
- AC50 [1]: 4.11 µM [falling, partial curve, poor fit]

Structure (SMILES): CCCCn1c(N)c(N(C)C(=O)c2ccc(Br)o2)c(=O)[nH]c1=O
- cell number change: 20.4%
- AC50 [1]: 0.0058 µM [rising, full curve]

Structure (SMILES): Cn1c(C(=O)N2CCN(Cc3ccc4c(c3)OCO4)CC2)cc2sccc21
- cell number change: -0.97%
- AC50 [1]: 0.326 µM [rising, full curve, poor fit]

Structure (SMILES): COC(=O)c1cc(S(=O)(=O)NCC2CCN(CCc3cccs3)CC2)c[nH]1
- cell number change: 9.85%
- AC50 [1]: 29.1 µM [rising, single point]

Structure (SMILES): CCn1c(=O)c(C(=O)Nn2c(C)nc3ccccc3c2=O)c(O)c2ccccc21
- cell number change: 52.7%
- AC50 [2]: 2.91 µM [rising, partial curve]
- AC50 [1]: 13 µM [rising, partial curve, poor fit]
